Earlier results on 1 molecule are cited in publication PMC6639268 (Journal of Virology, 2019).

A word on the IC50: it is the concentration at which inhibition is half-maximal.

The test system of this data set is EBOV. The note with it: read-out: IC50, inhibition of EBOV; cited from earlier work.

For `CN1[C@@H]2CC[C@H]1C[C@@H](OC(c1ccccc1)c1ccccc1)C2` [benztropine], the 50% inhibitory concentration (IC50) is 3.7 µM.
